No constants are given. Whether binding was seen depends on the method and setting. Some binding calls cover weakened binding; strength is not graded here.
Legend:
TNF-α [1] = molecular target: T1, TNF-α (UniProt P01375 77-233, biotinylated); experiment: phage display selection and phage ELISA
T1 construct: also called TNF-alpha; biotintylated TNF-α soluble protein (R&D Systems)

Chains of the proteins cited; added tags and fusions are not shown. Residues count along the entry.
UniProt P01375, residues 77-233: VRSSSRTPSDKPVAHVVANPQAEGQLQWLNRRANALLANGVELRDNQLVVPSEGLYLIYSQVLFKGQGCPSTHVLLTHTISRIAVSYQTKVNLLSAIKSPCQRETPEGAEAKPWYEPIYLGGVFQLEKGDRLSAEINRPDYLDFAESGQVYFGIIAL
UniProt P35968, residues 20-764: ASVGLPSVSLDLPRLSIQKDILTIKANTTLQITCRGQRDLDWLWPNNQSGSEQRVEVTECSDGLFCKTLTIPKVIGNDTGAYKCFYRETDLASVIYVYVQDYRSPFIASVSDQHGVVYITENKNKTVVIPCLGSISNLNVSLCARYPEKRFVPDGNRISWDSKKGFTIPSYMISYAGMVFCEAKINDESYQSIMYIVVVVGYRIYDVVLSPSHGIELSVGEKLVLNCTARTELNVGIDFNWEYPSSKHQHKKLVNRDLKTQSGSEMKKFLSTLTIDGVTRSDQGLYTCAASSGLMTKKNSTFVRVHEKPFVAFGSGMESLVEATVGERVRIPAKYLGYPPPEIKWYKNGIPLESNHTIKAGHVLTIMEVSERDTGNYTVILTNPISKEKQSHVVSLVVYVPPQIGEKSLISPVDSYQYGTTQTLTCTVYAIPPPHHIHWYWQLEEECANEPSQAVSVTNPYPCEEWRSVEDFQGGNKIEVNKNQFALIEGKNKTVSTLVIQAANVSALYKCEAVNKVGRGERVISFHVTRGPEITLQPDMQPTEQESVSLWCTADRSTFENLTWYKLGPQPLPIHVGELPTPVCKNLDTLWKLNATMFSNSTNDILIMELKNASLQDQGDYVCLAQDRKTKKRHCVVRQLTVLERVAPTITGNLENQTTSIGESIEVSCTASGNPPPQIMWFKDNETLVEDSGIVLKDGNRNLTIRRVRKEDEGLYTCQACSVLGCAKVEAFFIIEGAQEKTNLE
UniProt P09429: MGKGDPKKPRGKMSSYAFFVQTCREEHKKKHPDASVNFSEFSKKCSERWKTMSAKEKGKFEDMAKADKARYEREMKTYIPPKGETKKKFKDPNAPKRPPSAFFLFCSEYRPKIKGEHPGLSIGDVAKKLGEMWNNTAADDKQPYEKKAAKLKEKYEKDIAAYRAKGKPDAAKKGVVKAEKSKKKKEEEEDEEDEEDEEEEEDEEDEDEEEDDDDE

TNF-α [2] = molecular target: T1, TNF-α; experiment: phage ELISA
VEGFR2 = VEGFR2 (UniProt P35968); experiment: phage display selection
HMGB1 = HMGB1 (UniProt P09429); experiment: phage ELISA

Row | Binder | binding (VEGFR2) | binding (HMGB1) | other results
1 | TNF-α binder R4G4 (designed binder) NVSPPRRARVTDATETTITISWEPSEYDCYYSIYYFQVDAVPANGQTPIQRTIHDSYNYYTITGLQPGTDYKIYLYTLNSAGFCPPYSKPVVIDAST | – | – | binding (TNF-α [1]): binds; binding (TNF-α [2]): binds
2 | TNF-α binder R4E9 (designed binder) NVSPPRRARVTDATETTITISWESYYYDCCYYIYYFQVDAVPANGQTPIQRTIYYPYTSYTITGLQPGTDYKIYLYTLNSYGYGYHYYKPVVIDAST | – | – | binding (TNF-α [1]): binds; binding (TNF-α [2]): binds
3 | TNF-α binder R4F7 (designed binder) NVSPPRRARVTDATETTITISWYPYEYDDCYYYIYYFQVDAVPANGQTPIQRTIPDYESYYTITGLQPGTDYKIYLYTLNSYGFCPPSYKPVVIDAST | – | – | binding (TNF-α [1]): binds; binding (TNF-α [2]): binds
4 | SEQ ID NO 326 (designed binder) NVSPPRRARVTDATETTITISWRTKTKTITGFQVDAVPANGQTPIQRTIERNAHGYTITGLQPGTDYKIYLYTLYGLGEASSPVVIDAST | binds | – | –
5 | SEQ ID NO 327 (designed binder) NVSPPRRARVTDATETTITIRWRVAGSEFDSFQVDAVPANGQTPIQRTIHAATTTYTITGLQPGTDYKIYLYTFNDNARSSPVVIDAST | binds | – | –
6 | SEQ ID NO 328 (designed binder) NVSPPRRARVTDATETTITIRWKVAGGTFDSFQVDAVPANGQTPIQRTINAATTTYTITGLQPGTDYKIYLYTLNDNARSIPVVIDAST | binds | – | –
7 | SEQ ID NO 330 (designed binder) NVSPPRRARVTDATETTITIRWERSQGQFDGFQVDAVPANGQTPIQRTINADTNVYTITGLQPGTDYKIYLYTLTAFGAGDVTSSPVVIDAST | binds | – | –
8 | SEQ ID NO 331 (designed binder) NVSPPRCARVTDATETTITIRWGVPEGKVVSFQVDAVPANGQTPIQRTIKPDVRSYTITGLQPGTDYKIYLYTLNNTGGSTYTELTVVIDAST | binds | – | –
9 | 1637102_VGR2D12 (designed binder) NVSPPRRARVTDATETTITIRWERSGGPVDGFQVDAVPANGQTPIQRTINADTNIYTITGLQPGTDYKIYLYTLNDNARSSPVVIDAST | binds | – | –
10 | 1637102_VGR2F04 (designed binder) NVSPPRRARVTDATETTITIRWKAPEYTGGAEVLGFQVDAVPANGQTPIQRTINADTSTYTITGLQPGTDYKIYLYTLNDNARSSPVVIDAST | binds | – | –
11 | 1637102_VGR2B05 (designed binder) NVSPPRRARVTDATETTITIRWKQPKEADSQVLSFQVDAVPANGQTPIQRTINASTNVYTITGLQPGTDYKIYLYTLNDNARSSPVVIDAST | binds | – | –
12 | 1637102_VGR2C10 (designed binder) NVSPPRRARVTDATETTITIRWKLPVSADGVVPGFQVDAVPANGQTPIQRTINADISTYTITGLQPGTDYKIYLYTLNDNARSSPVVIDAST | binds | – | –
13 | R2E6 anti-HMGB1 (designed binder) NVSPPRRARVTDATETTITIRWGVAQSQVARFQVDAVPANGQTPIQRTIKRSVHTYTITGLQPGTDYKIYLYTLNDNARSSPVVIDAST | – | binds | –
14 | P2F3 anti-HMGB1 (designed binder) NVSPPRRARVTDATETTITIRWGVPHSFQVDAVPANGQTPIQRTIKRGVRSYTITGLQPGTDYKIYLYTLNDNARSSPVVIDAST | – | binds | –
15 | R2D4 anti-HMGB1 (designed binder) NVSPPRRARVTDATETTITISWGVAESEVTRFQVDAVPANGQTPIQRTIKRSKHAYTITGLQPGTDYKIYLYTLNDNARSSPVVIDAST | – | binds | –
16 | R2G9 anti-HMGB1 (designed binder) NVSPPRRARVTDATETTITIRWGVSESEVIRFQVDAVPANGQTPIQRTIKRSKHAYTITGLQPGTDYKIYLYTLNDNARSSPVVIDAST | – | binds | –
17 | R2F4 anti-HMGB1 (designed binder) NVSPPRRARVTDATETTITIRWGVSPSEVVRFQVDAVPANGQTPIQRTIKRSVHGYTITGLQPGTDYKIYLYTLNDNARSSPVVIDAST | – | binds | –
18 | R2B5 anti-HMGB1 (designed binder) NVSPPRRARVTDATETTITIRWTVAESKIARFQVDAVPANGQTPIQRTIKRSKHSYTITGLQPGTDYKIYLYTLNDNARSSPVVIDAST | – | binds | –
19 | R2E5 anti-HMGB1 (designed binder) NVSPPRRARVTDATETTITISWGVAPSEINRFQVDAVPANGQTPIQRTIKRSKHAYTITGLQPGTDYKIYLYTLNDNARSSPVVIDAST | – | binds | –
20 | R2F5 anti-HMGB1 (designed binder) NVSPPRRARVTDATETTITIRWGVSEGQIVRFQVDAVPANGQTPIQRTIKRSKHAYTITGLQPGTDYKIYLYTLNDNARSSPVVIDAST | – | binds | –
21 | P2F6 anti-HMGB1 (designed binder) NVSPPRRARVTDATETTITIRWTVPASPIARFQVDAVPANGQTPIQRTIKRTTRTYTITGLQPGTDYKIYLYTLNDNARSSPVVIDAST | – | binds | –
22 | P2C6 anti-HMGB1 (designed binder) NVSPPRRARVTDATETTITIRWGVAPSQVIRFQVDAVPANGQTPIQRTIKRSVHAYTITGLQPGTDYKIYLYTLNDNARSSPVVIDAST | – | binds | –
23 | P2F5 anti-HMGB1 (designed binder) NVSPPRRARVTDATETTITIRWGVPGSPVVRFQVDAVPANGQTPIQRTIKRGARIYTITGLQPGTDYKIYLYTLNDNARSSPVVIDAST | – | binds | –
24 | P2F7 anti-HMGB1 (designed binder) NVSPPRRARVTDATETTITIRWGAPASEIIRFQVDAVPANGQTPIQRTIKRTIHTYTITGLQPGTDYKIYLYTLNDNARSSPVVIDAST | – | binds | –
25 | SEQ ID NO 224 (designed binder) NVSPPRRARVTDATETTITIRWKQPKEAESQVLSFQVDAVPANGQTPIQRTINASTNVYTITGLQPGTDYKIYLYTLNDNARSSPVVIDAST | binds | – | –
26 | SEQ ID NO 225 (designed binder) NVSPPRLARVTDATETTITIRWALPIDPGSLVPSFQVDAVPANGQTPIQRTIHADTSTYTITGLQPGTDYKIYLYTLNDNARSSPVVIDAST | binds | – | –
27 | SEQ ID NO 228 (designed binder) NVSPPRRARVTDATETTITIRWNQPAYDGGRAIPGFQVDAVPANGQTPIQRTINADVSTYTITGLQPGTDYKIYLYTLNDNARSSPVVIDAST | binds | – | –
28 | SEQ ID NO 230 (designed binder) NVSPPRSARVTDATETTITIRWGEPTHNGGTEIPSFQVDAVPANGQTPIKRTINADTHTYTITGLQPGTDYKIYLYTLNDNARSSPVVIDAST | binds | – | –

Source: patent US20110021746A1 (published 2011)
